Source: the supplement of paper PMC5407854, “Inhibitor of ppGalNAc-T3-mediated O-glycosylation blocks cancer cell invasiveness and lowers FGF23 levels” (eLife, 2017)
The full ranking holds about 1,700 compounds; the median of “T3 sensor activation Q score (MG/GFP ratio z-score vs DMSO controls)” is about 0.25, and the highest 2% start at about 1.9. The list shows a part of the results.

tested on: ppGalNAc-T3 sensor; assay: T3 sensor activation Q score (MG/GFP ratio z-score vs DMSO controls) (SD units); higher = more sensor activation (inhibition of ppGalNAc-T3 glycosylation); conditions: HEK293 sensor cells; 10 µM; 6 h
Description: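 Cells were treated with compound at 10 uM for 6 h, then MG/GFP ratio was read by flow cytometry (10,000 cells per well, duplicate wells). Q = (R - R_neg)/SD_neg relative to DMSO vehicle controls; the signal rises when the glycosyltransferase is inhibited.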

For `CN1CCN(c2ccc([N+](=O)[O-])c3no[n+]([O-])c23)CC1`, which “T3 sensor activation Q score” value is on record?
The value was -0.95.

Which “T3 sensor activation Q score” value does the source give for `COc1c(OP2(=S)OCC(C)(C)CO2)cnn(C2CCCCC2)c1=O` here?
The value was 0.85.

How did the “T3 sensor activation Q score” value turn out when `CC(=O)OC1CCC2(C)C(CCC3C2CC(=O)C2(C)C3CC(N3CC3)C2C(C)=O)C1` (stereo not given) was run?
Its value is 0.25.

How did the “T3 sensor activation Q score” value turn out when `N.N.[Cl][Pt][Cl]` was run?
Its value is 0.05.

`CC1=C(O)C(=O)C=C2C1=CC=C1[C@@]2(C)CC[C@@]2(C)[C@@H]3C[C@](C)(C(=O)O)CC[C@]3(C)CC[C@]12C` was tested. Which “T3 sensor activation Q score” value did it give?
Its value is -4.6.

How did the “T3 sensor activation Q score” value turn out when `O=P(Oc1ccccc1)(Oc1ccccc1)c1ccccc1` was run?
The value was -0.75.

How did the “T3 sensor activation Q score” value turn out when `O=C(O)CCCc1ccc(N(CCCl)CCCl)cc1` was run?
The value was 0.55.

For `c1ccc2nc(OCCN3CC3)ccc2c1`, which “T3 sensor activation Q score” value is on record?
The value was 1.

Which “T3 sensor activation Q score” value does the source give for `C=CCCC1(C2=CCCCC2)C(=O)NC(=O)NC1=O` here?
The value was 0.55.

Which “T3 sensor activation Q score” value does the source give for `Cc1ccccc1-n1c(C=Cc2ccccn2)nc2ccccc2c1=O` here?
The value was -0.25.

How did the “T3 sensor activation Q score” value turn out when `COc1ccc(C2=CC(c3ccc(OC)c(OC)c3)c3c(c4ccccc4oc3=O)O2)cc1OC` (stereo not given) was run?
Its value is -1.85.

How did the “T3 sensor activation Q score” value turn out when `CC(C)OC1CCCC(O)C1CC(=O)O` (stereo not given) was run?
Its value is 0.15.

Which “T3 sensor activation Q score” value does the source give for `Cn1cnc([N+](=O)[O-])c1N=C(N)N` here?
The value was 0.25.

For `CNC(=O)Oc1c(C)[nH]ccc1=O`, which “T3 sensor activation Q score” value is on record?
The value was 1.25.

For `O=S(=O)(F)c1ccc2nc(-c3cccc(Sc4ccccc4)c3)cc(Cl)c2c1`, which “T3 sensor activation Q score” value is on record?
The value was -0.55.

How did the “T3 sensor activation Q score” value turn out when `Cc1ccc(C=C2C(Cl)=C(Cl)C(Cl)=C2Cl)cc1` was run?
The value was -1.65.

Which “T3 sensor activation Q score” value does the source give for `COC(=O)c1nc(-c2ccc3c(n2)C(=O)C(N)=C(OC)C3=O)c(N)c(-c2ccc(OC)c(OC)c2O)c1C` here?
Its value is -1.65.

How did the “T3 sensor activation Q score” value turn out when `OCC1CN1C1CCCCC1` (stereo not given) was run?
Its value is 1.

For `Cc1ccc(-n2c(O)c(C=N)c(=O)n(-c3ccc(C)cc3)c2=O)cc1`, which “T3 sensor activation Q score” value is on record?
Its value is 0.5.

`O=[N+]([O-])c1cc(-c2ccc([As](=O)(O)O)cc2)ccc1[As](=O)(O)O` was tested. Which “T3 sensor activation Q score” value did it give?
The value was -0.45.

With `CC12CCC3C(CC=C4CC(O)CCC43C)C1C/C(=C\N1CCCC1)C2=O` (stereo not given) as the molecule, how does the “T3 sensor activation Q score” value read?
Its value is 1.9.

Which “T3 sensor activation Q score” value does the source give for `C/C=C(/C)C(=O)O[C@H]1CCN2CC=C(COC(=O)[C@@](O)([C@H](C)OC)C(C)(C)O)[C@H]12` here?
Its value is -0.45.

Which “T3 sensor activation Q score” value does the source give for `CC(Cc1ccccc1)NC(N)=O` (stereo not given) here?
The value was 1.55.

With `COc1cccc2c1C(=O)c1c(O)c3c(c(O)c1C2=O)CC(O)(C(C)=NO)CC3OC1CC(N)C(O)C(C)O1` (stereo not given) as the molecule, how does the “T3 sensor activation Q score” value read?
The value was 0.1.

How did the “T3 sensor activation Q score” value turn out when `Cc1ncc([N+](=O)[O-])n1CCOC(N)=O` was run?
Its value is 1.1.

How did the “T3 sensor activation Q score” value turn out when `CCC1CN1P1(=O)OCC(C)([N+](=O)[O-])CO1` (stereo not given) was run?
The value was 0.9.

For `COC[C@H]1OC(=O)c2coc3c2[C@@]1(C)C1=C(C3=O)[C@@H]2CCC(=O)[C@@]2(C)C[C@H]1OC(C)=O`, which “T3 sensor activation Q score” value is on record?
The value was 0.15.

With `CNC(=O)Oc1ccc(N(C)C)cc1C(C)C` as the molecule, how does the “T3 sensor activation Q score” value read?
Its value is 0.

With `c1ccc2c(c1)Sc1ccccc1N2CC1CN2CCC1CC2` (stereo not given) as the molecule, how does the “T3 sensor activation Q score” value read?
The value was -0.15.

With `CC12CCC3c4ccc(OC(=O)N(CCCl)CCCl)cc4CCC3C1CCC2O` (stereo not given) as the molecule, how does the “T3 sensor activation Q score” value read?
The value was -0.45.

Which “T3 sensor activation Q score” value does the source give for `NC(=O)c1ccc(C(=O)Nc2ccc([As](=O)(O)O)cc2)cc1` here?
The value was -0.6.

For `CSc1nc(C)c(Br)c(N2CC2)n1`, which “T3 sensor activation Q score” value is on record?
Its value is 0.9.

For `CCN1CC2C3CCC(C)(O3)C2C1` (stereo not given), which “T3 sensor activation Q score” value is on record?
The value was 0.7.

With `C[C@H]1CC[C@H]2NCCN[C@H]2C1` as the molecule, how does the “T3 sensor activation Q score” value read?
Its value is 0.65.

Which “T3 sensor activation Q score” value does the source give for `CC(=O)Nc1cccc([As](=O)(c2cccc(NC(C)=O)c2)c2cccc(NC(C)=O)c2)c1` here?
The value was 0.6.

For `CC1Oc2cc3c(-c4c(O)cc(O)c5c(O)c6c(cc45)OC(C)C(C)C6=O)c(O)cc(O)c3c(O)c2C(=O)C1C` (stereo not given), which “T3 sensor activation Q score” value is on record?
Its value is -1.45.

With `C=Cc1cc(OC)c2c(c1)c(=O)oc1c2cc(OC)c2c(O)ccc(C3OC(C)C(O)C(C)(O)C3O)c21` (stereo not given) as the molecule, how does the “T3 sensor activation Q score” value read?
Its value is -0.3.

`N[C@@H](Cc1ccc(N(CCCl)CCCl)cc1)C(=O)O` was tested. Which “T3 sensor activation Q score” value did it give?
Its value is 0.05.

`O=C1NC(=O)C(=Cc2csc3ccccc23)C(=O)N1` was tested. Which “T3 sensor activation Q score” value did it give?
Its value is -0.05.

How did the “T3 sensor activation Q score” value turn out when `CCC1CCC(C)N(N=O)C1` (stereo not given) was run?
The value was 1.05.
